± gives the standard deviation of the averaged measurements. The reference is the same well before dosing, and untreated signal decays as well.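 Fibroblast labels denote human fibroblasts, mainly primary ones from uterus (C12385, HUF), lung (H6013), bone (Hs27A), adrenal (HADF) and skin (WS1), plus mammary HMF and breast cancer-associated Hs343T. Cancer cells are basal-like or mesenchymal-like triple-negative breast cancer lines. A hit is a response shift exceeding 3x replicate standard deviation. The tissue of the other fibroblasts is not given here.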
Test system: BT20
Experiment: relative JC-1 red fluorescence (viability) vs pre-drug, coculture with fibroblast (fraction); higher = more viable cancer cells
Description: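 JC-1 labelled TNBC cells cocultured 1:1 (1,500 cells each) with CellTrace Violet stained primary or stromal fibroblasts in 384-well plates in FluoroBrite medium, treated with one of 42 anticancer drugs at 0.1, 1, 10 or 100 uM. JC-1 red fluorescence (mitochondrial integrity in cancer cells only) was read by plate reader every 8 h for 72 h. Values are normalised to each well's pre-drug value. The stock of one drug was tenfold lower, so its dose labels may be too high.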

Nc1ccn([C@@H]2O[C@H](CO)[C@@H](O)C2(F)F)c(=O)n1 [Gemcitabine]
relative JC-1 red fluorescence
Settings	8 h	16 h	24 h	32 h	40 h	48 h	56 h	64 h	72 h
10 µM, coculture fibroblast: C12385	0.913 ± 0.013	0.804 ± 0.015	0.749 ± 0.017	0.686 ± 0.029	0.628 ± 0.025	0.591 ± 0.021	0.557 ± 0.025	0.525 ± 0.029	0.508 ± 0.036
10 µM, coculture fibroblast: H6013	0.955 ± 0.04	0.858 ± 0.014	0.806 ± 0.053	0.72 ± 0.034	0.657 ± 0.038	0.63 ± 0.048	0.63 ± 0.065	0.618 ± 0.065	0.618 ± 0.07
10 µM, coculture fibroblast: H6019	0.866 ± 0.013	0.788 ± 0.018	0.721 ± 0.022	0.634 ± 0.018	0.56 ± 0.011	0.521 ± 0.0069	0.4772 ± 0.0036	0.447 ± 0.009	0.436 ± 0.011
10 µM, coculture fibroblast: H6076	0.955 ± 0.049	0.89 ± 0.034	0.796 ± 0.038	0.741 ± 0.048	0.69 ± 0.077	0.645 ± 0.066	0.618 ± 0.079	0.601 ± 0.071	0.585 ± 0.064
10 µM, coculture fibroblast: H6231	0.8021 ± 0.002	0.971 ± 0.026	0.841 ± 0.013	0.781 ± 0.037	0.737 ± 0.035	0.681 ± 0.044	0.653 ± 0.075	0.611 ± 0.059	0.58 ± 0.072
10 µM, coculture fibroblast: HADF	0.785 ± 0.058	0.8688 ± 0.0044	0.817 ± 0.012	0.7777 ± 0.0077	0.738 ± 0.011	0.698 ± 0.028	0.673 ± 0.033	0.645 ± 0.025	0.618 ± 0.02
10 µM, coculture fibroblast: HCFa	0.946 ± 0.027	0.855 ± 0.021	0.785 ± 0.014	0.7211 ± 0.007	0.649 ± 0.027	0.588 ± 0.026	0.545 ± 0.045	0.501 ± 0.046	0.463 ± 0.05
10 µM, coculture fibroblast: HCPF	0.871 ± 0.14	0.92 ± 0.037	0.853 ± 0.033	0.791 ± 0.025	0.751 ± 0.0083	0.7106 ± 0.0014	0.6654 ± 0.0043	0.652 ± 0.023	0.603 ± 0.017
10 µM, coculture fibroblast: HHSteC	0.947 ± 0.02	0.8772 ± 0.006	0.883 ± 0.02	0.814 ± 0.0094	0.79 ± 0.032	0.759 ± 0.025	0.748 ± 0.048	0.731 ± 0.063	0.712 ± 0.069
10 µM, coculture fibroblast: HMF	0.97 ± 0.042	0.892 ± 0.035	0.793 ± 0.021	0.745 ± 0.0083	0.6978 ± 0.0065	0.65 ± 0.026	0.604 ± 0.027	0.57 ± 0.035	0.543 ± 0.041
10 µM, coculture fibroblast: HPFa	0.966 ± 0.022	0.883 ± 0.015	0.855 ± 0.017	0.775 ± 0.028	0.746 ± 0.059	0.696 ± 0.075	0.666 ± 0.097	0.644 ± 0.11	0.616 ± 0.11
10 µM, coculture fibroblast: HUF	0.9198 ± 0.0047	0.792 ± 0.014	0.756 ± 0.02	0.668 ± 0.032	0.628 ± 0.031	0.579 ± 0.043	0.539 ± 0.055	0.506 ± 0.051	0.487 ± 0.045
10 µM, coculture fibroblast: Hs5	0.726 ± 0.0073	0.945 ± 0.022	0.85 ± 0.028	0.803 ± 0.03	0.756 ± 0.02	0.724 ± 0.031	0.697 ± 0.043	0.668 ± 0.034	0.655 ± 0.033
10 µM, coculture fibroblast: Hs27A	0.906 ± 0.0093	0.863 ± 0.021	0.927 ± 0.016	0.917 ± 0.023	0.896 ± 0.024	0.875 ± 0.017	0.871 ± 0.022	0.853 ± 0.028	0.824 ± 0.025
10 µM, coculture fibroblast: Hs343T	0.92 ± 0.08	0.9 ± 0.021	0.8013 ± 0.0024	0.751 ± 0.014	0.688 ± 0.026	0.63 ± 0.034	0.575 ± 0.042	0.546 ± 0.048	0.509 ± 0.058
10 µM, coculture fibroblast: WS1	0.8608 ± 0.005	0.7653 ± 0.003	0.719 ± 0.013	0.639 ± 0.014	0.586 ± 0.012	0.553 ± 0.0085	0.512 ± 0.0076	0.477 ± 0.01	0.459 ± 0.0069
100 µM, coculture fibroblast: C12385	0.8811 ± 0.0022	0.788 ± 0.0063	0.727 ± 0.029	0.672 ± 0.041	0.623 ± 0.057	0.602 ± 0.075	0.572 ± 0.083	0.535 ± 0.083	0.513 ± 0.08
100 µM, coculture fibroblast: H6013	0.949 ± 0.07	0.891 ± 0.033	0.83 ± 0.015	0.762 ± 0.028	0.699 ± 0.066	0.678 ± 0.08	0.669 ± 0.074	0.65 ± 0.067	0.641 ± 0.076
100 µM, coculture fibroblast: H6019	0.856 ± 0.057	0.775 ± 0.065	0.739 ± 0.062	0.668 ± 0.086	0.623 ± 0.08	0.608 ± 0.087	0.574 ± 0.085	0.55 ± 0.074	0.533 ± 0.061
100 µM, coculture fibroblast: H6076	0.96107 ± 0.00037	0.853 ± 0.0092	0.8023 ± 0.0066	0.7758 ± 0.0036	0.76 ± 0.01	0.729 ± 0.012	0.723 ± 0.011	0.739 ± 0.022	0.716 ± 0.017
100 µM, coculture fibroblast: H6231	0.775 ± 0.11	0.929 ± 0.019	0.793 ± 0.018	0.722 ± 0.03	0.68 ± 0.034	0.632 ± 0.033	0.588 ± 0.03	0.563 ± 0.025	0.533 ± 0.033
100 µM, coculture fibroblast: HADF	0.968 ± 0.019	0.8761 ± 0.0068	0.873 ± 0.11	0.841 ± 0.087	0.832 ± 0.1	0.807 ± 0.13	0.804 ± 0.16	0.792 ± 0.18	0.771 ± 0.19
100 µM, coculture fibroblast: HCFa	0.9719 ± 0.0052	0.888 ± 0.04	0.842 ± 0.069	0.802 ± 0.071	0.74 ± 0.095	0.71 ± 0.12	0.684 ± 0.13	0.666 ± 0.14	0.64 ± 0.15
100 µM, coculture fibroblast: HCPF	0.776 ± 0.044	0.938 ± 0.029	0.856 ± 0.0099	0.8046 ± 0.0073	0.764 ± 0.009	0.721 ± 0.017	0.679 ± 0.025	0.647 ± 0.015	0.602 ± 0.016
100 µM, coculture fibroblast: HHSteC	0.918 ± 0.05	0.82 ± 0.055	0.781 ± 0.064	0.705 ± 0.064	0.645 ± 0.066	0.615 ± 0.072	0.581 ± 0.065	0.55 ± 0.064	0.519 ± 0.063
100 µM, coculture fibroblast: HMF	0.976 ± 0.022	0.8769 ± 0.0011	0.7808 ± 0.0015	0.722 ± 0.011	0.6832 ± 0.0022	0.6394 ± 0.005	0.601 ± 0.0085	0.5673 ± 0.0033	0.531 ± 0.008
100 µM, coculture fibroblast: HPFa	0.9492 ± 0.006	0.861 ± 0.051	0.856 ± 0.091	0.769 ± 0.12	0.757 ± 0.14	0.727 ± 0.15	0.72 ± 0.16	0.706 ± 0.18	0.674 ± 0.19
100 µM, coculture fibroblast: HUF	0.8916 ± 0.0021	0.7971 ± 0.0059	0.75619 ± 0.00056	0.674 ± 0.0097	0.617 ± 0.022	0.57 ± 0.019	0.548 ± 0.019	0.526 ± 0.026	0.513 ± 0.027
100 µM, coculture fibroblast: Hs5	0.927 ± 0.095	0.9 ± 0.017	0.8277 ± 0.0059	0.7774 ± 0.0041	0.743 ± 0.0078	0.7117 ± 0.0059	0.686 ± 0.013	0.661 ± 0.017	0.633 ± 0.026
100 µM, coculture fibroblast: Hs27A	0.864 ± 0.045	0.724 ± 0.034	0.877 ± 0.013	0.884 ± 0.023	0.837 ± 0.017	0.816 ± 0.012	0.7925 ± 0.006	0.769 ± 0.0032	0.737 ± 0.0081
100 µM, coculture fibroblast: Hs343T	0.893 ± 0.12	0.876 ± 0.021	0.79 ± 0.015	0.717 ± 0.019	0.664 ± 0.0017	0.616 ± 0.0096	0.5646 ± 0.0018	0.534 ± 0.017	0.497 ± 0.021
100 µM, coculture fibroblast: WS1	0.879 ± 0.0098	0.794 ± 0.013	0.7569 ± 0.0059	0.674 ± 0.0087	0.619 ± 0.021	0.591 ± 0.031	0.559 ± 0.043	0.529 ± 0.045	0.514 ± 0.056

Reference: the supplement of paper PMC6078165
